Data reported in PubChem BioAssay AID540256 (National Center for Advancing Translational Sciences (NCATS), 2011).
About 3,700 (1.2%) of roughly 300,000 compounds were called active. Inconclusive means that the source gave no clear call. Such entries were picked first, then a sample of the others. Calls come from the whole dose curve; tested in HEK293 cells. Potencies of inconclusive entries are doubtful fits and often do not repeat.
% is set by controls: 0 for no effect and ±100 for the full control effect; potency is the fitted concentration of half-maximal effect.

Test: qHTS for Inhibitors of binding or entry into cells for Lassa Virus; note: nearly all actives have a fitted effect of over 50% in size
Conditions: Lassa virus pseudotype entry inhibition, cell reporter; activity change, negative = inhibition: at 37.9 µM (top of the series) unless noted
With `CC(C)NC(=O)CN(C(=O)CCC(=O)Nc1nccs1)c1ccc2c(c1)OCO2` the Potency was inconclusive: 3.16 µM [inhibitor, single point]. For `N/C(=N\c1nc2c(c(=O)[nH]1)CCCC2)Nc1ccc(Oc2ccccc2)cc1`, the “activity change, negative = inhibition” value was inactive: -8.58%. With `COc1cccc(CN(C)C(=S)Nc2ccc(C)c(C)c2)c1` the Potency was inconclusive: 35.5 µM [inhibitor, single point]. For `O=C1CCCc2nc(N3CCc4ccccc43)ncc21`, the Potency was inconclusive: 8.2 µM [inhibitor, partial curve, poor fit]. In the case of `CC(C(=O)Nc1ccc2c(c1)OCCO2)N(C)CC(=O)Nc1ccccc1Br` (configuration not stated), the Potency was inconclusive: 1.41 µM [inhibitor, partial curve, poor fit]. With `Cc1ccc(C(C(=O)NCC2CCCO2)N(C(=O)c2snc(C(N)=O)c2N)c2ccc3c(c2)OCCO3)cc1` (configuration not stated) the Potency was active: 6.31 µM. With `O=C(NCc1ccc(F)cc1)c1ccc2oc(=O)n(Cc3ccccc3)c2c1` the Potency was inconclusive: 20 µM [inhibitor, partial curve, poor fit]. With `CCc1nnc(NC(=O)c2sc3nc4c(cc3c2N)CCCCC4)s1` the Potency was inconclusive: 16.4 µM [inhibitor, single point]. For `COc1ccc(Br)cc1CN1CCN(Cc2c[nH]c3ccccc23)CC1`, the Potency was inconclusive: 14.1 µM [inhibitor, single point]. With `Cc1ccc(Cl)cc1NC(=O)C1CCCN1S(=O)(=O)c1ccc(-c2ccc(=O)[nH]n2)s1` (configuration not stated) the Potency was inconclusive: 5.62 µM [inhibitor, single point]. With `Cc1cccc(NC(=O)NCC2CC2)c1` the “activity change, negative = inhibition” value was inactive: -0.889% [at 46.1 µM]. With `CSc1ccc(CCNC(=O)c2c(C)oc3ncn(C)c(=O)c23)cc1` the “activity change, negative = inhibition” value was inactive: -9.44% [at 46.1 µM]. With `O=C1CCCN1c1ccc(S(=O)(=O)Nc2ccc3c(c2)OCCO3)cc1` the Potency was inconclusive: 1.64 µM [inhibitor, full curve]. With `Cc1ccc(-c2cc(Cc3ccccc3)c(=O)[nH]n2)cc1` the Potency was active: 2.51 µM. With `O=C(c1ccc(Br)cc1)N(C1=NCCCCS1)c1ccccc1` the Potency was inconclusive: 6.31 µM [activator, single point]. For `Cc1ccc(-c2cc(C(F)F)n3ncc(C(=O)N4CCN(c5cccc(C)c5C)CC4)c3n2)cc1`, the Potency was inconclusive: 28.2 µM [inhibitor, single point]. For `Cc1ccc(S(=O)(=O)N(CC(=O)NCCC2=CCCCC2)Cc2ccccc2)cc1`, the Potency was inconclusive: 16.4 µM [inhibitor, partial curve, poor fit]. For `Cc1ccc2c(c1)nnn2C1CCN(S(=O)(=O)c2ccc(C(=O)N3C(C)CCCC3C)cc2)CC1` (configuration not stated), the Potency was inconclusive: 10 µM [inhibitor, partial curve, poor fit]. In the case of `O=C(c1cc(-c2cccs2)on1)N1CCN(C(c2ccccc2)c2ccccc2)CC1`, the Potency was inconclusive: 11.6 µM [inhibitor, partial curve]. With `CCC(=O)Nc1cccc(-c2nc3cc(C)ccc3o2)c1` the Potency was inconclusive: 1.12 µM [activator, partial curve, poor fit]. With `CC(C)NC(=O)c1cc2c(s1)CCCC2` the Potency was inconclusive: 9.2 µM [activator, single point]. In the case of `N#Cc1c(NC(=O)c2ccc([N+](=O)[O-])o2)sc2c1CCC2`, the Potency was inconclusive: 17.8 µM [inhibitor, single point]. With `COc1cc(C2CC(=O)Nc3c2c(=O)n(C)c2ncnn32)cc(OC)c1OC` (configuration not stated) the “activity change, negative = inhibition” value was inactive: 22.5% [at 46.1 µM]. With `O=C(Nc1ccc(O)cc1)c1ccc(C(=O)c2ccccc2)o1` the Potency was inconclusive: 12.6 µM [inhibitor, partial curve, poor fit]. In the case of `Nc1cc(Cl)c(NC2=NCCN2)c(Cl)c1`, the Potency was inconclusive: 0.411 µM [activator, full curve]. In the case of `Cc1ccc(C)c(NS(=O)(=O)c2cc(C(=O)NCc3ccco3)ccc2C)c1`, the Potency was inconclusive: 29.1 µM [inhibitor, single point]. For `CC(C)c1ccc(NC(=O)N(CCc2nc3ccccc3[nH]2)C2CCCC2)cc1`, the “activity change, negative = inhibition” value was inactive: -5.32%. For `CN(Cc1ccccc1)c1ncnc2c1cnn2-c1ccccc1`, the Potency was inconclusive: 20.6 µM [inhibitor, partial curve, poor fit]. For `CCCCNC(=O)c1ccc2c(c1)S(=O)(=O)c1ccccc1C2=O`, the Potency was inconclusive: 20 µM [inhibitor, partial curve, poor fit]. In the case of `NS(=O)(=O)c1ccc(CCNC(=O)COC(=O)C2CCN(c3ccc(C(F)(F)F)cn3)CC2)cc1`, the Potency was inconclusive: 1.12 µM [activator, partial curve, poor fit]. In the case of `COc1ccc(NC(=O)CSc2nnc(-c3ccccc3F)n2C2CC2)cc1S(N)(=O)=O`, the Potency was inconclusive: 6.31 µM [inhibitor, single point]. With `CC(=O)C1=C(C)NC(SCC(=O)c2ccc(F)cc2)=C(C#N)C1CC(C)C` (configuration not stated) the Potency was inconclusive: 20 µM [inhibitor, single point]. For `CCN(C(=O)C1CCCN(c2ncnc3c2nc2n3CCCCC2)C1)c1cccc(Cl)c1` (configuration not stated), the Potency was inconclusive: 10 µM [inhibitor, partial curve, poor fit]. For `Cc1cc(NC(=O)c2ccc(NC(=O)CCS(=O)(=O)c3cccs3)cc2)ccc1Br`, the Potency was inconclusive: 7.94 µM [activator, partial curve, poor fit]. For `O=C(NCc1ccco1)C1CCN(C(=O)c2cc3sccc3n2Cc2ccc(F)cc2)CC1`, the Potency was active: 10.3 µM. With `CC(=O)Nc1cccc(C(=O)NCc2ccc3c(c2)CCN3C(=O)c2ccc(F)cc2)c1` the “activity change, negative = inhibition” value was inactive: 6.79% [at 46.1 µM]. With `O=C(NCCCN1CCN(c2ccccc2F)CC1)c1ccc2nc(N3CCCCC3)sc2c1` the Potency was inconclusive: 7.08 µM [activator, full curve, poor fit]. In the case of `CN1CCN(NC(=S)Nc2ccccc2)CC1`, the Potency was inconclusive: 5.62 µM [inhibitor, single point]. With `OCCNc1c2ccccc2nc2c(F)c(F)c(F)c(F)c12` the Potency was inconclusive: 11.2 µM [inhibitor, partial curve, poor fit]. In the case of `O=C(O)c1cc(-c2ccc(Cl)s2)nc2ccccc12`, the Potency was inconclusive: 35.5 µM [inhibitor, single point]. In the case of `COc1cc(C(C)=O)ccc1COc1ccc(C(=O)OCC(=O)NC2CCS(=O)(=O)C2)cc1OC` (configuration not stated), the “activity change, negative = inhibition” value was inactive: -11.7%. In the case of `O=C(O)c1ccc2c(c1)C(=O)N(c1nccs1)C2=O`, the “activity change, negative = inhibition” value was inactive: 17.1%. For `CCOc1ccc(NC(=O)NC23CC4CC(CC(C4)C2)C3)cc1`, the Potency was active: 11.2 µM. For `Cc1ccc(N(C)S(=O)(=O)c2cccc(C(=O)OCC(=O)N3CCCC(C)C3)c2)cc1` (configuration not stated), the “activity change, negative = inhibition” value was inactive: -21.8%. In the case of `CC(C)c1ccc(-n2c(-c3ccccc3)c[n+]3c2CCc2ccccc2-3)cc1`, the Potency was active: 3.16 µM. In the case of `COc1ccc2[nH]cc(CCN=C(NC(=O)c3ccccc3C)Nc3nc(C)cc(C)n3)c2c1`, the Potency was inconclusive: 3.98 µM [inhibitor, full curve, poor fit]. For `COc1ccc(OCC(=O)Nc2ccc(-c3nc4cc(C)c(C)cc4o3)cc2)cc1`, the “activity change, negative = inhibition” value was inactive: 0.698% [at 46.1 µM]. In the case of `CCCCCN(C(=O)CCC(=O)OCc1cc(C)ccc1C)c1c(N)n(CCCC)c(=O)[nH]c1=O`, the Potency was inconclusive: 17.8 µM [inhibitor, single point]. For `O=C(COC(=O)c1ccccc1C(=O)N1CCN(c2ccccc2)CC1)NCc1ccccc1`, the Potency was inconclusive: 35.5 µM [inhibitor, single point]. For `CC(C)N(Cc1ccccc1)C(=O)CN1C(=O)CSc2ccc(S(=O)(=O)N3CCCC3)cc21`, the Potency was inconclusive: 10 µM [inhibitor, partial curve, poor fit]. With `Cc1c(C(=O)N2CCC(C)CC2)c(S(=O)(=O)Nc2ccc(OC(F)(F)F)cc2)c(C)n1C` the “activity change, negative = inhibition” value was inactive: -22.7% [at 46.1 µM]. In the case of `COc1ccc(Br)cc1CN(C)CC(=O)NCCc1ccc(S(N)(=O)=O)cc1`, the Potency was inconclusive: 17.8 µM [inhibitor, single point]. With `O=C(Nc1ccccc1)c1ccccc1N=Cc1cccc(O)c1` the “activity change, negative = inhibition” value was inactive: 24.8% [at 46.1 µM]. For `COc1cc(NC(=O)Cn2nc3c(cc2=O)CC(C)CC3)cc(OC)c1OC` (configuration not stated), the “activity change, negative = inhibition” value was inactive: 16.8% [at 46.1 µM]. With `O=S(=O)(Oc1ccc(Cl)cc1)c1cccc2cccnc12` the Potency was inconclusive: 1 µM [activator, partial curve, poor fit]. In the case of `Cc1cc(Nc2cc(F)ccc2C)nc(-n2nc(C)cc2C)n1`, the Potency was inconclusive: 35.5 µM [inhibitor, single point]. In the case of `O=C(OCC(=O)N1CCc2ccccc21)c1cccnc1`, the “activity change, negative = inhibition” value was inactive: 4.41%. In the case of `Cc1ccc(NC(=O)c2sc3nc[nH]c(=O)c3c2C)c(C)c1`, the “activity change, negative = inhibition” value was inactive: 7.83%. In the case of `CC(C)CC1(C)NC(=O)N(CC(=O)Nc2ccc(F)c(F)c2F)C1=O` (configuration not stated), the Potency was inconclusive: 0.112 µM [inhibitor, full curve, poor fit]. In the case of `Cc1ccc(NC(=O)C(CC(C)C)NC(N)=O)cc1` (configuration not stated), the Potency was inconclusive: 4.11 µM [inhibitor, partial curve, poor fit]. With `O=c1c2c(nc3cc(-c4cccc(Cl)c4)[nH]n13)CCC2` the Potency was inconclusive: 20.6 µM [inhibitor, single point]. With `O=C(Nc1ccc(Cc2ccncc2)cc1)c1ccc(S(=O)(=O)N2CCCC2)cc1` the Potency was inconclusive: 22.4 µM [inhibitor, single point]. For `NC(=O)c1ccccc1OCCOc1ccc(Br)cc1`, the “activity change, negative = inhibition” value was inactive: -29.6% [at 46.1 µM]. For `CCC(C(=O)NC1CCCC1)N(C(=O)Cn1nnc(-c2ccc(C)o2)n1)C(C)(C)C` (configuration not stated), the “activity change, negative = inhibition” value was inactive: 0.491%. For `C/C(=N\NC(=O)c1ccccc1)c1ccccc1F`, the “activity change, negative = inhibition” value was inactive: 15% [at 46.1 µM]. For `O=C(NC1CCCC1)C(c1ccncc1)N(Cc1ccccc1)C(=O)c1ccc(-c2ccccc2)[nH]1` (configuration not stated), the Potency was inconclusive: 35.5 µM [inhibitor, single point]. With `Cc1ccc(NS(=O)(=O)c2ccc(-c3cc(C)no3)cc2)c(Br)c1` the Potency was inconclusive: 22.4 µM [inhibitor, single point].
